# At least one compound was matched to its structure with a doubt left.
# Molecular target: alpha synuclein peptide 61-90 (SEQ.ID.No.:3) (Homo sapiens, UniProt P37840)
# Assay: Thioflavin T fluorescence disaggregation assay of aggregated alpha synuclein
# Type: biochemical
# Conditions: incubation 5 minutes to 2 hours
# Protocol: Prior to assay, concentrated alpha synuclein peptide 61-90 (SEQ.ID.No.:3) was diluted into assay buffer containing Thioflavin T (20 uM) such that a signal to noise of approximately 5 to 1 was achieved. Rifampicin was maintained in 8% DMSO at a concentration of 2 mM. To break up super aggregates, the solution was sonicated using a Heat System sonicator with a microprobe. The samples were sonicated in 30 ml volume in a Coming 50 ml centrifuge tube for 25, 3 second bursts. The assay was run in LJL HE (LJL Biosystems) plates as follows: 18 μl of alpha synuclein/thioflavin T mixture was added to the well followed by 2 μl of a 30% DMSO or by rifampicin diluted in 30% DMSO. As a control, buffer with thioflavin T was added to separate wells in the absence of alpha synuclein. The samples were incubated at room temperature for the times indicated in FIG. 1 and were then read on the LJL reader using wavelengths of 440 nm and 485 nm.
# To test the effect of incubation times on disaggregation of alpha synuclein, alpha synuclein was incubated with a rifampicin concentration curve ranging from 0.1 μM to 100 μM for 2 and 5 hours. The data are the mean of 11 samples±the standard deviation at each time point.
# The signal to background are from quadruplicate samples of buffer (low value) and alpha synuclein/TFT buffer (high value). The EC50 were generated from 11 samples of each time point. […]
structure (smiles),measurement,setting,value
CO[C@H]1/C=C/O[C@@]2(C)Oc3c(C)c(O)c4c(O)c(c(/C=N/N5CCN(C)CC5)c(O)c4c3C2=O)NC(=O)/C(C)=C\C=C\[C@H](C)[C@H](O)[C@@H](C)[C@@H](O)[C@@H](C)[C@H](OC(C)=O)[C@@H]1C [Rifampicin],time by which disaggregation of the alpha synuclein sheet begins,,≤ 15 min
same,time by which disaggregation appears complete,no further disaggregation at 2 hours,≤ 1 h
